Reference: publication PMC8329073

Columns and labels:
Thrombin [1] = test: strand-displacement fluorescence (Rep-2); conditions: 5 mM Mg2+, 20 mM Tris-HCl pH 7.5 (22 °C), 100 mM NaCl, 0.1 mM EDTA, 5 mM MgCl2 (20 mM MgCl2 for DNAzyme), room temperature, indirect read-out by strand-displacement fluorescence, commercial protein, folded or branched DNA
Thrombin [2] = test: strand displacement with toehold-exchange amplification; conditions: 5 mM Mg2+; 20 mM Tris-HCl pH 7.5 (22 °C), 100 mM NaCl, 0.1 mM EDTA, 5 mM MgCl2 (20 mM MgCl2 for DNAzyme), room temperature; indirect read-out by strand-displacement fluorescence; commercial protein; folded or branched DNA
Thrombin [3] = test: strand-displacement fluorescence (Rep-4); conditions: feedback circuit; 20 mM Tris-HCl pH 7.5 (22 °C), 100 mM NaCl, 0.1 mM EDTA, 5 mM MgCl2 (20 mM MgCl2 for DNAzyme), room temperature; indirect read-out by strand-displacement fluorescence; commercial protein; folded or branched DNA
Thrombin [4] = test: strand-displacement fluorescence (Rep-1); conditions: 200 nM thrombin, no ATP, 5 mM Mg2+; 20 mM Tris-HCl pH 7.5 (22 °C), 100 mM NaCl, 0.1 mM EDTA, 5 mM MgCl2 (20 mM MgCl2 for DNAzyme), room temperature; indirect read-out by strand-displacement fluorescence; commercial protein; folded or branched DNA
Thrombin [5] = test: strand displacement with DNAzyme amplification; conditions: 20 mM Mg2+; 20 mM Tris-HCl pH 7.5 (22 °C), 100 mM NaCl, 0.1 mM EDTA, 5 mM MgCl2 (20 mM MgCl2 for DNAzyme), room temperature; indirect read-out by strand-displacement fluorescence; commercial protein; folded or branched DNA

“GTGATGTCAACGTTGTCCGTGGTAGGGCAGGTTGGGGTGACCAAGATCGTGCG / CGCACGATCTTGCTTGGGGGAGTATTGCGGAGGAAAGTTGGATAGGTAGGGTACGCT [Apt-Thr-AND / Apt-ATP-AND combinatory aptamer]”: binds (Thrombin [1]; 200 nM thrombin with 1 mM ATP).
“CAATCTCTTTGTCCGTGGTAGGGCAGGTTGGGGTGACTTGCCATAGCCAGTAGTCTC [Apt-Thr-TE]”: binds (Thrombin [2]).
“CTTGAAGCAGCTAACCGATACAGTTGCAGGTCCAGGTTGTCCGTGGTAGGGCAGGTTGGGGTGACTTCGATAGAGA [Apt-Thr-stimulation (= Apt-Thr-inhibition)]”: binds (Thrombin [3]).
“ATGTCAACGTAGTCCGTGGTAGGGCAGGTTGGGGTGACTTGGATAGGTAGGGTACGCT [Apt-Thr-4bp]”: binds (Thrombin [1]).
“GCAATCTCTTTCTTGGGGGAGTATTGCGGAGGAAAGTTGCCATGACCAGTAGTCTC [Apt-ATP-3bp-CTT]”: no binding (Thrombin [4]).
“TAAGTTGCTTGTCCGTGGTAGGGCAGGTTGGGGTGACTTATGAGATATCTCCGAGCC [Apt-Thr-DNAzyme]”: binds (Thrombin [5]).

For at least one entry, the source does not settle the construct or the ends of the probe. For part of these data: No signal at the amounts used counts as a negative. For part of these data: At least one verdict rests on a figure or table, not on a statement of the authors.
